Laboratory results from paper PMC7380579.

Molecular target: T1, PerR (PerR:Zn,Mn) (UniProt A0ABN4B511)
T1 sequence (looked up): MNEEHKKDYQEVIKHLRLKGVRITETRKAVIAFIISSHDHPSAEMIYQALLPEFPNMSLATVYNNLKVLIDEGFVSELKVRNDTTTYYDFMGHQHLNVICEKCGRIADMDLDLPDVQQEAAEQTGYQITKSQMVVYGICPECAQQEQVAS
Assay: EMSA
Conditions: 10 mM Tris-HCl pH 8.0, 50 mM NaCl, 5% glycerol, 10 ug/ml BSA, 2 ng/ul poly(dI-dC), 0.5 mM DTT, Chelex-treated, 0.2 nM probe, 30 C, 6% PAGE on ice, recombinant protein, label: 5'-biotin (forward primer), probe letters rebuilt from the primers and the genome

Sequence	binding result (1 mM Mn2+, PerR 0-200 nM, 1 mM MnCl2, 30 min, residues 1-150, protein details: GST tag (pGEX4T-1) removed with thrombin)	binding result (PerR:Zn,Mn (50 nM) pretreated with 50 uM H2O2, 30 min, 1 mM …, residues 1-150, protein details: GST tag (pGEX4T-1) removed with thrombin)	binding signal (% of untreated complex) (PerR:Zn,Mn (50 nM) pretreated with 200 uM H2O2, 5 min (text: ~59% inactivated), 1 mM MnCl2, 30 min, residues 1-150, protein details: GST tag (pGEX4T-1) removed with thrombin)
ATAGCTTCTGAAAGAGGGGACTGCCAAATAGAAAGGCCTCCTCAAAAAGACTCTGGCGGGTTGATTCATACGGTAATGACACCATTTCTGCTAGAAAAACTGTATCGAGAGTAGCTTGAGACCAGCCGAGCGCTTGTAATTCTGTATAGCATTGCTCTATTTCTACTTTCATCACCATCCACATCCATCATATAAAATTTCTTCAGTACCGTTCGAGGCTTCGCTAGCAGGCTCATGCAGCCTTCGATACCTCTCCTATTTACCTCTAAATATGCCAAAATTTCAGCTAAAAGTCAATGTACAAAGGAACATCCAAGCTCAAATTGTATTCTTTCGGCATTTTTTGCTATACTAGTCTTAGGAAAACAACGAGGACTGAAAATGACGCCAAATAAAG (double strand) [mntR promoter]	no binding	–	–
AATGACCAAGCCTAGAAATGAGGCTAAAATCGTTCCGACCAGAAAAAAGTATAGATGTATCATACTTATTTATTCGTGATTTTGAGCAGAAAAATTTTGAAATTTTACAACTTTTCTAATAAAGTAAAATTTTTAGTTTTAATACTTGACTTTCTTAATTAGAAGCATTATAATTAAAACATAATCAATAAAGATTAGAATGATTACAAATAAAAAGAGAGGTATCATT (double strand) [dpr promoter]	–	binds more weakly	41

Negatives hold for the conditions tested. Where a protein sequence is shown, tags need not be part of it. Construct, isoform or probe ends are uncertain for at least one entry. The comparison behind a weaker result is the experiment's own reference, which may not be listed here. The direction of at least one scale is not stated here.
